Experiment [1] addresses T1, HA-fused JAZ4 (Arabidopsis thaliana) (UniProt Q58G47).
T1 sequence: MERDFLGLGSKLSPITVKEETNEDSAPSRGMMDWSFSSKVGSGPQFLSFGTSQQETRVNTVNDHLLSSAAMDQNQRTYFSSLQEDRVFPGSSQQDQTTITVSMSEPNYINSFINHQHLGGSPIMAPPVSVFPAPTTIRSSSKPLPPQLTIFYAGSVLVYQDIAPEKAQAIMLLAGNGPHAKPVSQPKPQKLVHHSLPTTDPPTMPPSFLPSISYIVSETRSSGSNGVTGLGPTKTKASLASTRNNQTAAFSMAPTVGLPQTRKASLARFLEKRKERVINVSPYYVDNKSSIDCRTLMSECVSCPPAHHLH
Nature of the experiment: co-IP; Myc-WRKY75 and HA-JAZ co-expressed 48 h in N. benthamiana (tobacco) leaves; protein extracts, anti-HA antibody and A/G-agarose beads, blot with anti-Myc.

Sequences of proteins named here, by UniProt entry; tags and fusion partners are left off.
UniProt Q9FYA2: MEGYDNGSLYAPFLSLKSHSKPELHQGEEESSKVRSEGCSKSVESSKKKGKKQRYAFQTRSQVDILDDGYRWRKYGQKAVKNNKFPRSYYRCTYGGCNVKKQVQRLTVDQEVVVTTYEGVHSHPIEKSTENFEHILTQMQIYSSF

Experiment [2] concerns the target T2, HA-fused JAZ8 (Arabidopsis thaliana) (UniProt Q8LBM2).
T2 sequence: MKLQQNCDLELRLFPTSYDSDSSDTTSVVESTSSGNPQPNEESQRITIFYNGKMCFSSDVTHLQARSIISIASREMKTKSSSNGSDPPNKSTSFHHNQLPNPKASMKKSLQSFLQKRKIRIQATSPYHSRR
Described as above.

Experiment [3] has as its target WRKY75 fused to the C-terminal portion of YFP (WRKY75-cYFP) (Arabidopsis thaliana) (UniProt Q9FYA2). Nature of the experiment: split reporter; BiFC: JAZ-nYFP and WRKY75-cYFP co-infiltrated into N. benthamiana leaves by Agrobacterium; YFP read by confocal microscopy 48 h after infiltration.
For experiment [4], the target named is WRKY75 fused to the Gal4 DNA binding domain (BD-WRKY75) (Arabidopsis thaliana) (UniProt Q9FYA2). The experiment is described as follows: two-hybrid; directed test: bait (pGBKT7) and prey (pGADT7) vectors co-transformed into yeast; growth on synthetic dropout medium lacking Leu, Trp, His and Ade.

This note sets out measurements from PMC7904156.

These are yes or no findings as the source states them, for the method shown. For part of these data: In cells and extracts the contact can be indirect. Some entries that bind do so weakly or less than the wild type. Where a sequence is shown, tags or fusion partners need not be part of it.

“Myc-fused WRKY75 (from UniProt Q9FYA2 1-145)”: the binding entry in experiment [1] and in experiment [2] was “binds” each time.

B1: JAZ4 fused to the N-terminal portion of YFP (JAZ4-nYFP) (protein, UniProt Q58G47 1-310)
chain: MERDFLGLGSKLSPITVKEETNEDSAPSRGMMDWSFSSKVGSGPQFLSFGTSQQETRVNTVNDHLLSSAAMDQNQRTYFSSLQEDRVFPGSSQQDQTTITVSMSEPNYINSFINHQHLGGSPIMAPPVSVFPAPTTIRSSSKPLPPQLTIFYAGSVLVYQDIAPEKAQAIMLLAGNGPHAKPVSQPKPQKLVHHSLPTTDPPTMPPSFLPSISYIVSETRSSGSNGVTGLGPTKTKASLASTRNNQTAAFSMAPTVGLPQTRKASLARFLEKRKERVINVSPYYVDNKSSIDCRTLMSECVSCPPAHHLH
On to B1, for which, in experiment [3], the binding result was “binds”.

B2: JAZ4 (yeast two-hybrid prey) (protein, UniProt Q58G47 1-310)
chain: MERDFLGLGSKLSPITVKEETNEDSAPSRGMMDWSFSSKVGSGPQFLSFGTSQQETRVNTVNDHLLSSAAMDQNQRTYFSSLQEDRVFPGSSQQDQTTITVSMSEPNYINSFINHQHLGGSPIMAPPVSVFPAPTTIRSSSKPLPPQLTIFYAGSVLVYQDIAPEKAQAIMLLAGNGPHAKPVSQPKPQKLVHHSLPTTDPPTMPPSFLPSISYIVSETRSSGSNGVTGLGPTKTKASLASTRNNQTAAFSMAPTVGLPQTRKASLARFLEKRKERVINVSPYYVDNKSSIDCRTLMSECVSCPPAHHLH
For the molecule B2, in experiment [4], the binding entry is “binds weakly”.

B3: JAZ9 (yeast two-hybrid prey) (protein, UniProt Q8W4J8 1-267)
chain: MERDFLGLSDKQYLSNNVKHEVNDDAVEERGLSTKAAREWGKSKVFATSSFMPSSDFQEAKAFPGAYQWGSVSAANVFRRCQFGGAFQNATPLLLGGSVPLPTHPSLVPRVASSGSSPQLTIFYGGTISVFNDISPDKAQAIMLCAGNGLKGETGDSKPVREAERMYGKQIHNTAATSSSSATHTDNFSRCRDTPVAATNAMSMIESFNAAPRNMIPSVPQARKASLARFLEKRKERLMSAMPYKKMLLDLSTGESSGMNYSSTSPT
Turning to B3, in experiment [4], the binding entry is “binds weakly”.

B4: the 83 N-terminal residues of JAZ8 (containing the ZIM domain), fused to the AD domain of pGADT7 (domain or fragment, UniProt Q8LBM2 1-83)
chain: MKLQQNCDLELRLFPTSYDSDSSDTTSVVESTSSGNPQPNEESQRITIFYNGKMCFSSDVTHLQARSIISIASREMKTKSSSN
On to B4, for which, in experiment [4], the binding entry is “binds”.

B5: JAZ8 fused to the N-terminal portion of YFP (JAZ8-nYFP) (protein, UniProt Q8LBM2 1-131)
chain: MKLQQNCDLELRLFPTSYDSDSSDTTSVVESTSSGNPQPNEESQRITIFYNGKMCFSSDVTHLQARSIISIASREMKTKSSSNGSDPPNKSTSFHHNQLPNPKASMKKSLQSFLQKRKIRIQATSPYHSRR
B5: in experiment [3], the binding result is “binds”.

B6: JAZ8, full length, fused to the AD domain of pGADT7 (protein, UniProt Q8LBM2 1-131)
chain: MKLQQNCDLELRLFPTSYDSDSSDTTSVVESTSSGNPQPNEESQRITIFYNGKMCFSSDVTHLQARSIISIASREMKTKSSSNGSDPPNKSTSFHHNQLPNPKASMKKSLQSFLQKRKIRIQATSPYHSRR
For the molecule B6, the binding result in experiment [4] is listed as “binds”.

B7: JAZ7 (yeast two-hybrid prey) (protein, UniProt O64687 1-148)
chain: MIIIIKNCDKPLLNFKEMEMQTKCDLELRLLTSSYDSDFHSSLDESSSSEISQPKQESQILTIFYNGHMCVSSDLTHLEANAILSLASRDVEEKSLSLRSSDGSDPPTIPNNSTRFHYQKASMKRSLHSFLQKRSLRIQATSPYHRYR
On to B7, for which the binding entry in experiment [4] is given as “binds weakly”.
